# In PubChem BioAssay AID652054 (National Center for Advancing Translational Sciences (NCATS), 2013):
# Amino acid sequences for entries named in this document (tags omitted).
# UniProt P35462, whole entry, looked up: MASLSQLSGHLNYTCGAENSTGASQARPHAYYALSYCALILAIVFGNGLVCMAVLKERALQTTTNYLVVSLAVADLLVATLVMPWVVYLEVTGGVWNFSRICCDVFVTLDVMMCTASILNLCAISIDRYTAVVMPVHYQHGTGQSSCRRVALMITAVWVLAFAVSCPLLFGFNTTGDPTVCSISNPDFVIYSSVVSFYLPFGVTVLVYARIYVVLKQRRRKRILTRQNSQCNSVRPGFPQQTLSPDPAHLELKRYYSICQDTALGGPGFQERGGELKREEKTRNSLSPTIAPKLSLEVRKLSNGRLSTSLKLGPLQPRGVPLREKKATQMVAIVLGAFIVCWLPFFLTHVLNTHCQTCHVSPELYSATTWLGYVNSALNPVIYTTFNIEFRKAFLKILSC
# The campaign covered roughly 360,000 compounds. About 9,100 (2.5%) were called active. Inconclusive means that the source gave no clear call. Such entries were picked first, then a sample of the others. No stated cut-off is given here; in the data, active means max response below about -50%; inconclusive means no clear call, values can overlap the other calls; inactive means above that.
# Target: D(3) dopamine receptor (Homo sapiens) (UniProt P35462)
# Experiment: qHTS of D3 Dopamine Receptor Antagonist: qHTS
# Conditions: D3R cells, DiscoveRx beta-arrestin luminescence, antagonist mode; active compounds read low
# How it was run: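 Cells expressing the human receptor were seeded at 1500 cells/well, incubated overnight at 37 degrees C in 5% CO2, then exposed to library compounds with dopamine controls for 90 minutes at 37 degrees C before luminescent detection.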
# On the % scale 0 is the no-effect control and ±100 the full control effect.
row,SMILES,"max response, negative = inhibition"
1,N#C/C(=C/c1ccc(CNS(=O)(=O)c2ccccc2)o1)C(N)=O,inconclusive: -36.6%
2,COc1ccc(N=C2SC(CC(=O)Nc3ccccc3)C(=O)N2CCN2CCOCC2)cc1 (stereo not drawn),inconclusive: -40.5%
3,Cc1cc(Sc2nnc(N)s2)c2ccccc2n1,inconclusive: -43.7%
4,CC(=O)c1cccc(NC(=O)N2CCCC2C(=O)NC2CCCCC2)c1 (stereo not drawn),inconclusive: -41.4%
5,COc1ccc([N+](=O)[O-])cc1NC1CCCCC1,inconclusive: -42.5%
6,CN(Cc1ccccc1)C1CCCN(C(=O)c2ccc(Cl)s2)C1 (stereo not drawn),active: -81.9%
7,CC1(C)CC(=O)C=C(Nc2ccc(Cl)c(Br)c2)C1,inconclusive: -37.9%
8,COc1ccc(NC(=O)c2cc(-c3ccccc3OC)on2)cc1,inconclusive: -41.8%
9,Cc1c(/C=N\NC(=O)C2COc3ccc(C(C)(C)C)cc3O2)c2ccccc2n1C (stereo not drawn),inactive: 19.4%
10,CC1Cc2nc(SCC(=O)NCC3CCCO3)n(C)c(=O)c2S1 (stereo not drawn),active: -53.4%
11,CCn1cc(CN2CCC(C(=O)Nc3cccc(-c4cccc(OC)c4)c3)CC2)cn1,inconclusive: -40%
12,O=C(Nc1cccnc1)c1cc(-c2cccs2)on1,active: -60.6%
13,Cc1ccc(-c2nc(SCC(=O)NCC3CCCO3)c(-c3ccc(Cl)cc3)[nH]2)cc1 (stereo not drawn),inconclusive: -43.9%
14,C=CCn1c(SCC(=O)N2CCCC2=O)nc2sc(CC)cc2c1=O,inactive: 62.1%
15,Cc1ccc2ccccc2c1CSc1nc(N)nc2c1ncn2CC(C)C,inactive: -5.64%
16,CC(C)=C1C2CCC1C1C(=O)N(NC(=O)COc3ccc(Cl)c(C)c3)C(=O)C21 (stereo not drawn),inactive: 4.61%
17,Cc1cc(=O)oc(C)c1C(=O)NC12CC3CC(CC(C3)C1)C2,inconclusive: -33.6%
18,O=[N+]([O-])c1ccc2c3n([n+]([O-])c2c1)CCN=C3c1ccc(Cl)cc1,inactive: -9.55%
19,Oc1ccc(/C=N/Nc2ccnc3cc(Cl)ccc23)cc1O,inconclusive: -43.3%
20,COc1cccc(-c2cnc3c(NC=O)cc(-c4cc(OC)c(OC)c(OC)c4)cn23)c1,inactive: 62.5%
21,O=C(N/N=C/c1ccco1)C1CC1(c1ccccc1)c1ccccc1 (stereo not drawn),inactive: 2%
22,COc1ccccc1-c1cc(C(F)(F)F)nc(S(=O)(=O)CCCC(=O)N2CCOCC2)n1,inconclusive: -42.5%

row,SMILES,"max response, negative = inhibition"
1,Cn1c(SCC(=O)N/N=C/c2ccc([N+](=O)[O-])s2)nnc1-c1ccc(Cl)cc1,inconclusive: -42.6%
2,COc1ccc(/C=N/NC(=O)CCc2nc3ccccc3[nH]2)cc1,inconclusive: -30.5%
3,CCC(C)(C)NC(=O)Cc1ccc(C)cc1,inconclusive: -33.6%
4,COc1cc(C(=O)N2CCCCC2c2cc(C(=O)NC(C)C)no2)cc(OC)c1C (stereo not drawn),inactive: -1.56%
5,CCC1C(=O)N=C(SCC(=O)Nc2ccc(C(=O)OC)cc2)NC1=O (stereo not drawn),inconclusive: -30.5%
6,O=C(O)c1ccc(/C=C2/SC(=S)N(Cc3ccccc3)C2=O)cc1,inactive: 2.14%
7,CCCSc1nc2sc3c(c2c(=O)n1-c1ccc(OC)cc1)CCN(C)C3,inconclusive: -42%
8,CN(C)CCN(C(=O)C1CCN(S(=O)(=O)c2cccs2)CC1)c1nc2c(F)cccc2s1,inconclusive: -36.7%
9,OCCNCc1c(OCc2ccc(Cl)cc2)ccc2ccccc12,inconclusive: -43.8%
10,CC(=O)c1cccc(NC(=O)/C=C/c2ccc([N+](=O)[O-])s2)c1,active: -68.7%
11,Cc1ccc(/C=C2\SC(=S)N(NS(=O)(=O)c3ccc(C)cc3)C2=O)cc1,inactive: 12.6%
12,c1cc(CNC2=NCCCCC2)ccn1,inconclusive: -30.8%
13,COc1ccc(OC)c(N=C(C)C2=C(O)COC2=O)c1,inconclusive: -31.7%
14,c1ccc(C(c2nnnn2Cc2ccco2)N2CCN(C3CCCC3)CC2)cc1 (stereo not drawn),inconclusive: -48.3%
15,Cc1nn(-c2ccccc2)c(C)c1NC(=O)COc1ccc(C#N)cc1,inactive: 19.4%
16,O=C(Nc1ccc(S(=O)(=O)Nc2nccs2)cc1)c1cc(-c2ccccn2)nc2ccccc12,inconclusive: -31.5%
17,CCOC(=O)N1CCN(C(=O)Cc2ccc(C)cc2)CC1,active: -57.7%
18,COc1cc(C(C)=O)ccc1OCCN1CCC(Cc2ccccc2)CC1,active: -77.2%
19,COc1ccc(NC(=O)CC2C(=O)N(c3ccc(OC)cc3)C(=O)N2CCc2cccs2)cc1 (stereo not drawn),inconclusive: -47.3%
20,O=C(CCC(NC(=O)OCc1ccccc1)C(=O)OCc1ccccc1)NCC(=O)OCc1ccccc1 (stereo not drawn),inconclusive: -37.7%
21,CCc1nc2ccc(C(=O)Nc3ccc(OC)c(OC)c3)cn2c1N(CC)Cc1cccc(Br)c1,inconclusive: -40.2%

# Looked up above.
# max response, negative = inhibition with Cc1cc(Sc2nnc(N)s2)c2ccccc2n1 is entered as inconclusive: -43.7%
# max response, negative = inhibition with CCc1nc2ccc(C(=O)Nc3ccc(OC)c(OC)c3)cn2c1N(CC)Cc1cccc(Br)c1 is entered as inconclusive: -40.2%
# max response, negative = inhibition with Cn1c(SCC(=O)N/N=C/c2ccc([N+](=O)[O-])s2)nnc1-c1ccc(Cl)cc1 is entered as inconclusive: -42.6%
